Source: the supplement of paper PMC12819154, “High-throughput peptide-centric local stability assay extends protein–ligand identification to membrane proteins, tissues and bacteria” (Nature Structural & Molecular Biology, 2025)
The other results are listed elsewhere or left out. Small differences around the control level are noise.

Amino acid sequences for entries named in this document (tags omitted). A change or cut given only in a name is not applied to a line headed by its entry.
UniProt Q9WVB0, whole entry, looked up: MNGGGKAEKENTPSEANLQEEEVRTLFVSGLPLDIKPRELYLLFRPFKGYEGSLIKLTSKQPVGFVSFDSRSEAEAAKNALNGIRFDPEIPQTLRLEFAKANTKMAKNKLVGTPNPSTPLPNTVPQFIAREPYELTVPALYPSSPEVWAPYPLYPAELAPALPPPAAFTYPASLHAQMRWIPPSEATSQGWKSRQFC
UniProt Q9Z2E9: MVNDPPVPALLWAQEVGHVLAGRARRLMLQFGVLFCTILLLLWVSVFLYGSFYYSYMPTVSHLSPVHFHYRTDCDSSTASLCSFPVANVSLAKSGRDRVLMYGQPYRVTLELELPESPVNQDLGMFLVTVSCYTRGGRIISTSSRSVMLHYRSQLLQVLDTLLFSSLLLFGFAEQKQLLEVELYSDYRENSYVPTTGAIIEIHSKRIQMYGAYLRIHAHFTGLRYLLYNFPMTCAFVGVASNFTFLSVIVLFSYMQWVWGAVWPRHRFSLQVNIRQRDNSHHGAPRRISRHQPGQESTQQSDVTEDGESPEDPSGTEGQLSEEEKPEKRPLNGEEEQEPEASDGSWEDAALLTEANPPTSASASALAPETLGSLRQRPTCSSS
UniProt Q9Z1D7: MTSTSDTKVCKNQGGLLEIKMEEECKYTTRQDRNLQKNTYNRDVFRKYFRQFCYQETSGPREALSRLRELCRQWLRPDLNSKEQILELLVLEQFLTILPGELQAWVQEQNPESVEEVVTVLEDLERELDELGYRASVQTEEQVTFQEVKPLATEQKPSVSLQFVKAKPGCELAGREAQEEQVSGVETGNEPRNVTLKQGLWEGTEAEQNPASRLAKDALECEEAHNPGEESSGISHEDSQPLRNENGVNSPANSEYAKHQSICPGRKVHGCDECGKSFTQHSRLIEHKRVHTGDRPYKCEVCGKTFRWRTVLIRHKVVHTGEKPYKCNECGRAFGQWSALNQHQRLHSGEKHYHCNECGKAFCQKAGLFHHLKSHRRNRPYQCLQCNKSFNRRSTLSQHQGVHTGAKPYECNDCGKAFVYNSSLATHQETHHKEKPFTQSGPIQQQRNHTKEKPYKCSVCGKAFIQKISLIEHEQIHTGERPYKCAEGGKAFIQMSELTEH

compound: CN[C@@H]1C[C@H]2O[C@@](C)([C@@H]1OC)n1c3ccccc3c3c4c(c5c6ccccc6n2c5c31)C(=O)NC4 [staurosporine]; experiment: log2 fold change of tryptic peptide abundance, ligand vs vehicle (limited proteolysis) (log2 ratio); higher = more trypsin-susceptible (destabilized); conditions: ligand concentration: 20 uM; sample: mouse liver crude lysate; replicate design: treated separately

Row | Target | log2 fold change
1 | UniProt Q9WVB0 (peptide sequence: FDPEIPQTLR, peptide start residue: 86) | 0.0584
2 | UniProt Q9Z2E9 (peptide sequence: DNSHHGAPR, peptide start residue: 278) | 0.0619
3 | UniProt Q9Z1D7 (peptide sequence: AFIQMSELTEH, peptide start residue: 491) | -0.0587
